The values that follow are results of earlier work, collected in patent US20200078478A1, “Structural molecule of peptide derivative for PSMA-targeting radiotherapy diagnosis and treatment” (priority 2018, published 2020).

Data set [1] has as its system prostate cancer. Particulars: tumor diagnosis on the prostate.
Data set [2] has as its system prostate cancer. Particulars: 100 patients with prostate cancer.
Data set [3] relates to recurrent prostate cancer. Particulars: PET/CT, nearly 100 patients.

Take `C[N+](C)(C[18F])CCO` [F-18-FECH, F-18-fluoro-methylcholine]: in the data set on prostate cancer [1], the sensitivity is 84.7% and the specificity is 91.1%.

In the case of `C[N+](C)([11CH3])CCO` [C-11-Choline], in the data set with prostate cancer [2], the positive rate is on record as 47%.

Turning to `NC1(C(=O)O)CC([18F])C1` (stereo not drawn) [F-18-FACBC, anti-1-amino-3-F-18-fluorocyclobutane-1-carboxylic acid], in data set [3], the “positive detection rate of metastatic tumor” value is recorded as 96% and the “positive detection rate of primary prostate cancer” value is given as 74%.

Consider `[18F-].[Na+]` [F-18-NaF], for which the positive rate with prostate cancer [2] is 27%.
